Data as given in article PMC3836487.

By UniProt entry, the sequences of proteins in these tests, tags left out. Where a name states a change or a piece, a line headed by the entry shows the natural chain unless it says otherwise.
UniProt B8GXP6: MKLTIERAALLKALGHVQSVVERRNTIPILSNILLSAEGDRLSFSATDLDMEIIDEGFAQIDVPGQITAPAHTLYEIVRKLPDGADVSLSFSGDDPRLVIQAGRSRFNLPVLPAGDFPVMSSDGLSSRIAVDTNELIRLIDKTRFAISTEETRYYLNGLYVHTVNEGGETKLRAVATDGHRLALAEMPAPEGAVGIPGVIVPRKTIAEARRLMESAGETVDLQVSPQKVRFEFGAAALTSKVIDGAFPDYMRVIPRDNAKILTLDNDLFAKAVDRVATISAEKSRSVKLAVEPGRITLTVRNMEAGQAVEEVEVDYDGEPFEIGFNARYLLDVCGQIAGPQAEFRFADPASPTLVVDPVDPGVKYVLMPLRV
UniProt A0A0H3C884: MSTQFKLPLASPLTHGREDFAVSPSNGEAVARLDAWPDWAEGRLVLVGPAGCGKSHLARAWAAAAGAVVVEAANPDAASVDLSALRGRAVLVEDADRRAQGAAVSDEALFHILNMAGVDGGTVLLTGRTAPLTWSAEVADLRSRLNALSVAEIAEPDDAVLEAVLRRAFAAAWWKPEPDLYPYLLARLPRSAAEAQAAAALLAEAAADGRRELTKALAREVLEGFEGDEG

Biological target: DnaN–CFP (C. crescentus) (UniProt B8GXP6)
Test: FRET or BRET; acceptor photobleaching FRET in live C. crescentus cells on 1 % agarose pads; YFP (acceptor) bleached for 20 s at 532 nm, increase of CFP (donor) emission recorded; cells grown in M2G, 0.3 % xylose for 1 h; apparent FRET efficiency, above 0.5 % taken as an interaction, above 1 % as a strong one

For YFP–HdaA (from UniProt A0A0H3C884), the binding was “binds”.

These are yes or no findings as the source states them, for the method shown. Binding seen in cells or lysates may run through a third protein. A result given as binding can be weak or reduced; the word gives no strength.
